Measurements taken from US20220185896A1 (NEW YORK UNIVERSITY, published 2022).
No constants are given. Whether binding was seen depends on the method and setting. Some binding calls cover weakened binding; strength is not graded here.

Sequences of proteins named here, by UniProt entry; tags and fusion partners are left off.
UniProt O08573: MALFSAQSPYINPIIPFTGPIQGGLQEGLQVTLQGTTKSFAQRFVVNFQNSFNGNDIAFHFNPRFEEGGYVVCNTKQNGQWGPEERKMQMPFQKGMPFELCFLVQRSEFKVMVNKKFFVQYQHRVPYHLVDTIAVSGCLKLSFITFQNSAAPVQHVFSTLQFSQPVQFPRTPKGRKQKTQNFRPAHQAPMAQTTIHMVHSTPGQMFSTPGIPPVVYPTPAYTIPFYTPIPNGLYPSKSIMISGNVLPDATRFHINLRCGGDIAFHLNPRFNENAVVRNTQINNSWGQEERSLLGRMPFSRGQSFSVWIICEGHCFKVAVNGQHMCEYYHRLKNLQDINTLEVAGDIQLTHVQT

What was measured:
[1] = molecular target: mouse galectin-9 on or in KPC mouse pancreatic cancer cells (mouse) (UniProt O08573); experiment: flow cytometry on permeabilized KPC cells
[2] = molecular target: human galectin-9 on the cell surface (CRL-2134 cell line; patient tumor-derived cells) (human) (UniProt O00182); experiment: flow cytometry on cells from human tumor biopsy organoid fractions
[3] = molecular target: human galectin-9 on the cell surface (CRL-2134 cell line; patient tumor-derived cells) (human) (UniProt O00182); experiment: flow cytometry, % Gal9+ of CD3+ cells, S3 fraction, colorectal carcinoma biopsy; antibody concentration not given
[4] = molecular target: human galectin-9 on the cell surface (CRL-2134 cell line; patient tumor-derived cells) (human) (UniProt O00182); experiment: flow cytometry, % Gal9+ of CD3+ cells, S2 fraction, colorectal carcinoma biopsy; antibody concentration not given
[5] = molecular target: human galectin-9 on the cell surface (CRL-2134 cell line; patient tumor-derived cells) (human) (UniProt O00182); experiment: flow cytometry, % Gal9+ of CD11b+ cells, S3 fraction, colorectal carcinoma biopsy; antibody concentration not given
[6] = molecular target: human galectin-9 on the cell surface (CRL-2134 cell line; patient tumor-derived cells) (human) (UniProt O00182); experiment: flow cytometry, % Gal9+ of EpCam+ cells, S3 fraction, colorectal carcinoma biopsy; antibody concentration not given
[7] = molecular target: human galectin-9 on the cell surface (CRL-2134 cell line; patient tumor-derived cells) (human) (UniProt O00182); experiment: flow cytometry, % Gal9+ of CD11b+ cells, S2 fraction, colorectal carcinoma biopsy; antibody concentration not given
[8] = molecular target: human galectin-9 on the cell surface (CRL-2134 cell line; patient tumor-derived cells) (human) (UniProt O00182); experiment: flow cytometry, % Gal9+ of EpCam+ cells, S2 fraction, colorectal carcinoma biopsy; antibody concentration not given
[9] = molecular target: human galectin-9 on the cell surface (CRL-2134 cell line; patient tumor-derived cells) (human) (UniProt O00182); experiment: flow cytometry, % Gal9+ of CD3+ cells, S3 fraction, pancreatic adenocarcinoma biopsy; antibody concentration not given
[10] = molecular target: human galectin-9 on the cell surface (CRL-2134 cell line; patient tumor-derived cells) (human) (UniProt O00182); experiment: flow cytometry, % Gal9+ of CD3+ cells, S2 fraction, pancreatic adenocarcinoma biopsy; antibody concentration not given
[11] = molecular target: human galectin-9 on the cell surface (CRL-2134 cell line; patient tumor-derived cells) (human) (UniProt O00182); experiment: flow cytometry, % Gal9+ of CD11b+ cells, S3 fraction, pancreatic adenocarcinoma biopsy; antibody concentration not given
[12] = molecular target: human galectin-9 on the cell surface (CRL-2134 cell line; patient tumor-derived cells) (human) (UniProt O00182); experiment: flow cytometry, % Gal9+ of EpCam+ cells, S3 fraction, pancreatic adenocarcinoma biopsy; antibody concentration not given
[13] = molecular target: human galectin-9 on the cell surface (CRL-2134 cell line; patient tumor-derived cells) (human) (UniProt O00182); experiment: flow cytometry, % Gal9+ of CD11b+ cells, S2 fraction, pancreatic adenocarcinoma biopsy; antibody concentration not given
[14] = molecular target: human galectin-9 on the cell surface (CRL-2134 cell line; patient tumor-derived cells) (human) (UniProt O00182); experiment: flow cytometry, % Gal9+ of EpCam+ cells, S2 fraction, pancreatic adenocarcinoma biopsy; antibody concentration not given
[15] = molecular target: human galectin-9 on the cell surface (CRL-2134 cell line; patient tumor-derived cells) (human) (UniProt O00182); experiment: flow cytometry, % Gal9+ of CD3+ cells, S3 fraction, second pancreatic adenocarcinoma biopsy; antibody concentration not given
[16] = molecular target: human galectin-9 on the cell surface (CRL-2134 cell line; patient tumor-derived cells) (human) (UniProt O00182); experiment: flow cytometry, % Gal9+ of CD3+ cells, S2 fraction, second pancreatic adenocarcinoma biopsy; antibody concentration not given
[17] = molecular target: human galectin-9 on the cell surface (CRL-2134 cell line; patient tumor-derived cells) (human) (UniProt O00182); experiment: flow cytometry, % Gal9+ of CD11b+ cells, S3 fraction, second pancreatic adenocarcinoma biopsy; antibody concentration not given
[18] = molecular target: human galectin-9 on the cell surface (CRL-2134 cell line; patient tumor-derived cells) (human) (UniProt O00182); experiment: flow cytometry, % Gal9+ of EpCam+ cells, S3 fraction, second pancreatic adenocarcinoma biopsy; antibody concentration not given
[19] = molecular target: human galectin-9 on the cell surface (CRL-2134 cell line; patient tumor-derived cells) (human) (UniProt O00182); experiment: flow cytometry, % Gal9+ of CD11b+ cells, S2 fraction, second pancreatic adenocarcinoma biopsy; antibody concentration not given
[20] = molecular target: human galectin-9 on the cell surface (CRL-2134 cell line; patient tumor-derived cells) (human) (UniProt O00182); experiment: flow cytometry, % Gal9+ of EpCam+ cells, S2 fraction, second pancreatic adenocarcinoma biopsy; antibody concentration not given
[21] = molecular target: cynomolgus galectin-9 CRD2 domain (cynomolgus monkey); experiment: bead based binding
[22] = molecular target: human galectin-9 on the cell surface (CRL-2134 cell line; patient tumor-derived cells) (human) (UniProt O00182); experiment: cell based binding on CRL-2134 cells
[23] = molecular target: galectin-9 on the HuProt Human Proteome Microarray (human) (UniProt O00182); experiment: HuProt protein array, cross-reactivity assay
[24] = molecular target: human galectin-9 on the cell surface (CRL-2134 cell line; patient tumor-derived cells) (human) (UniProt O00182); experiment: cell surface staining, flow cytometry on CRL-2134 cells
[25] = molecular target: galectin-9 on the HuProt Human Proteome Microarray (human) (UniProt O00182); experiment: HuProt Human Proteome Microarray, fluorescent secondary antibody

Measured: binding

B1: G9.2-17 Fab (Fab, V domains shown)
VH: EVQLVESGGGLVQPGGSLRLSCAASGFTVSSSSIHWVRQAPGKGLEWVAYISSSSGYTYYADSVKGRFTISADTSKNTAYLQMNSLRAEDTAVYYCARYWSYPSWWPYRGMDYWGQGTLVTVSS
VL: DIQMTQSPSSLSASVGDRVTITCRASQSVSSAVAWYQQKPGKAPKLLIYSASSLYSGVPSRFSGSRSGTDFTLTISSLQPEDFATYYCQQSSTDPITFGQGTKVEIKR
binds: [1] | [2] | [3] | [4] | [5] | [6] | [7] | [8] | [9] | [10] | [11] | [12] | [13] | [14] | [15] | [16] | [17] | [18] | [19] | [20]

B2: G9.2-17 mIgG1 (mouse IgG1 version of G9.2-17) (antibody, V domains shown)
VH: B1 VH
VL: B1 VL
notes: Mouse IgG1 backbone; also called mIgG1 G9.2-17; G9.2-17 IgG1 mouse mAb
binds: [21] | [22]

B3: anti-Galectin-9 antibody G9.2-17 (IgG4) (antibody, V domains shown)
VH: B1 VH
VL: B1 VL
notes: also called G9.2-17 (Ig4); G9.2-17 hIgG4 Fab Arm Exchange mut
binds: [23] | [24] | [25]
